These are yes or no findings as the source states them, for the method shown. For some assays here: Binding seen in cells or lysates may run through a third protein. Some results given as binding are weak or reduced against the parent protein; the word gives no strength.

By UniProt entry, the sequences of proteins in these tests, tags left out.
UniProt P26599: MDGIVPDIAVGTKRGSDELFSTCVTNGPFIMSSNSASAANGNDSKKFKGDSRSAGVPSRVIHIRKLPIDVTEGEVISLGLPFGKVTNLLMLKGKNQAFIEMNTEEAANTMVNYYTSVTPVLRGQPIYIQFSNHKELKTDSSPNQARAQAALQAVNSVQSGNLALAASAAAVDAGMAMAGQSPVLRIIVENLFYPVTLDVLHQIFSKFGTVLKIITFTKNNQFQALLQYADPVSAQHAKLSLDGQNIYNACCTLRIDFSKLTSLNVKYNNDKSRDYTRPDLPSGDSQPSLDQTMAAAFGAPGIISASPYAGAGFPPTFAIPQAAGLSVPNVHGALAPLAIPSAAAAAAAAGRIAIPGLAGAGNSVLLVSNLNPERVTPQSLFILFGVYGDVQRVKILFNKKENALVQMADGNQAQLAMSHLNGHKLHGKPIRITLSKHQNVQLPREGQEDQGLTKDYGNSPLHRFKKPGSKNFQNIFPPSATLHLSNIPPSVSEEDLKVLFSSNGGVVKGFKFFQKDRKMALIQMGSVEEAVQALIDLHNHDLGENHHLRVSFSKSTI

Test [1] concerns the target polypyrimidine tract-binding protein (human (endogenous in MCF7 and HeLa)) (UniProt P26599). As to the kind of experiment: co-IP; anti-PTB (BB7) on protein A/G beads, nuclear lysates of MCF7 cells, control or TRAIL-treated; western blot. For orientation: Immunoblotting shows a protein as a band on a membrane.
Test [2] addresses recombinant PTB (UniProt P26599). As to the kind of experiment: co-IP; purified recombinant proteins incubated with rePTB in an equal molar ratio; isolated on A/G sepharose beads bound to anti-PTB (BB7), extensive washing; western blot; both purified.

B1: NONO/p54nrb (protein, UniProt Q15233 1-471)
chain: MQSNKTFNLEKQNHTPRKHHQHHHQQQHHQQQQQQPPPPPIPANGQQASSQNEGLTIDLKNFRKPGEKTFTQRSRLFVGNLPPDITEEEMRKLFEKYGKAGEVFIHKDKGFGFIRLETRTLAEIAKVELDNMPLRGKQLRVRFACHSASLTVRNLPQYVSNELLEEAFSVFGQVERAVVIVDDRGRPSGKGIVEFSGKPAARKALDRCSEGSFLLTTFPRPVTVEPMDQLDDEEGLPEKLVIKNQQFHKEREQPPRFAQPGSFEYEYAMRWKALIEMEKQQQDQVDRNIKEAREKLEMEMEAARHEHQVMLMRQDLMRRQEELRRMEELHNQEVQKRKQLELRQEEERRRREEEMRRQQEEMMRRQQEGFKGTFPDAREQEIRMGQMAMGGAMGINNRGAMPPAPVPAGTPAPPGPATMMPDGTLGLTPPTTERFGQAATMEGIGAIGGTPPAFNRAAPGAEFAPNKRRRY
In the case of B1, the binding entry in test [1] was “binds”.

B2: recombinant NONO/p54nrb (protein, UniProt Q15233 1-471)
chain: MQSNKTFNLEKQNHTPRKHHQHHHQQQHHQQQQQQPPPPPIPANGQQASSQNEGLTIDLKNFRKPGEKTFTQRSRLFVGNLPPDITEEEMRKLFEKYGKAGEVFIHKDKGFGFIRLETRTLAEIAKVELDNMPLRGKQLRVRFACHSASLTVRNLPQYVSNELLEEAFSVFGQVERAVVIVDDRGRPSGKGIVEFSGKPAARKALDRCSEGSFLLTTFPRPVTVEPMDQLDDEEGLPEKLVIKNQQFHKEREQPPRFAQPGSFEYEYAMRWKALIEMEKQQQDQVDRNIKEAREKLEMEMEAARHEHQVMLMRQDLMRRQEELRRMEELHNQEVQKRKQLELRQEEERRRREEEMRRQQEEMMRRQQEGFKGTFPDAREQEIRMGQMAMGGAMGINNRGAMPPAPVPAGTPAPPGPATMMPDGTLGLTPPTTERFGQAATMEGIGAIGGTPPAFNRAAPGAEFAPNKRRRY
As for B2, the binding entry in test [2] was “binds”.

Source of the values: publication PMC3857619.
